# Reference: article PMC6709923
# Protein sequences, listed by entry. Tags and fused reporters are not part of them. Residues count along the entry.
# UniProt P19878, residues 1-155: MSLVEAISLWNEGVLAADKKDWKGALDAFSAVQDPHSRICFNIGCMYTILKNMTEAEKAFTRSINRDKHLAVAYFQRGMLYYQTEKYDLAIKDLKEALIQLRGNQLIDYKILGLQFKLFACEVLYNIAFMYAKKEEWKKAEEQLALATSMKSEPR
# UniProt O70145: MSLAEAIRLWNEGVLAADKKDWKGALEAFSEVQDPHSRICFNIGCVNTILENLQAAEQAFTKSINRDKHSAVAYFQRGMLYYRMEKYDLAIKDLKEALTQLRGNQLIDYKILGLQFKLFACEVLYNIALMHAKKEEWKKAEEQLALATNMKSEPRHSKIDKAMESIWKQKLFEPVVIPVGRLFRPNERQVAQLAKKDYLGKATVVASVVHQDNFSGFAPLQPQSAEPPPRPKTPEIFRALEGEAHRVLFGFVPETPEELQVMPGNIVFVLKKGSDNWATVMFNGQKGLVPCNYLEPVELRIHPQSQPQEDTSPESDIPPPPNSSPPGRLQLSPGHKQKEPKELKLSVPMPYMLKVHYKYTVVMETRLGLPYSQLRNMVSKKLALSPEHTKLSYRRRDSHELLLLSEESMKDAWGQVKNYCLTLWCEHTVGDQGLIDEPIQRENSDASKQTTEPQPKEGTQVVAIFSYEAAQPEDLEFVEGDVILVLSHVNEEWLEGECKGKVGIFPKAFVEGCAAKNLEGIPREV
# Read-outs that look alike come from different tables or passages of the source. Results are given in words; binding and its absence hold for the method and conditions named. In cells and extracts the contact can be indirect. Some results given as binding are weak or reduced against the parent protein; the word gives no strength.
# T1: Fas-associated factor 1 (endogenous, mouse macrophages) (mouse (endogenous in Raw264.7 and BMDMs)) (UniProt P54731)
# T1 sequence: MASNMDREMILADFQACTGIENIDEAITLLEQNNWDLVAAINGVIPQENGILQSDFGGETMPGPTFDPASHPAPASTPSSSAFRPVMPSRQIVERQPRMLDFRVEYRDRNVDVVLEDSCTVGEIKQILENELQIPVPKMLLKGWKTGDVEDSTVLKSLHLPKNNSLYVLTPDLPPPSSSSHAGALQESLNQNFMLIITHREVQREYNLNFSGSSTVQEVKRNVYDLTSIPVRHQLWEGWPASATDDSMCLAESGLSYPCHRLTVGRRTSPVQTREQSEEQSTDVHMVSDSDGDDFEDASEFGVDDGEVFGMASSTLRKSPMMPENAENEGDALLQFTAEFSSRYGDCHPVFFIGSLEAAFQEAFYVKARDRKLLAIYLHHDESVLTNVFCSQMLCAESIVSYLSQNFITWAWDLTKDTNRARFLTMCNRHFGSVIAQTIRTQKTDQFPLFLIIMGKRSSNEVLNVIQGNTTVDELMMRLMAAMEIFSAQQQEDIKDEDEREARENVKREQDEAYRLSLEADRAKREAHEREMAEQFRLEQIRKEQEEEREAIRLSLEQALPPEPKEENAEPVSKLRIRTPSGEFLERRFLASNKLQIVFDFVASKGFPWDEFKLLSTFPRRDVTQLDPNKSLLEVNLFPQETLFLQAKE
# B1: p47phox (endogenous, Raw264.7) (protein, UniProt Q09014 1-390)
# chain: MGDTFIRHIALLGFEKRFIPSQHYVYMFLVKWQDLSEKVVYRKFTEIYEFHKMLKEMFPIEAGEIHTENRVIPHLPAPRWFDGQRAAESRQGTLTEYFNGLMGLPVKISRCPHLLDFFKVRPDDLKLPTDSQAKKPETYLVPKDGKNNVADITGPIILQTYRAIADYEKSSGTEMTVATGDVVDVVEKSESGWWFCQMKTKRGWVPASYLEPLDSPDEAEDPDPNYAGEPYVTIKAYAAVEEDEMSLSEGEAIEVIHKLLDGWWVVRKGDITGYFPSMYLQKAGEEITQAQRQIRGRGAPPRRSTIRNAQSIHQRSRKRLSQDTYRRNSVRFLQQRRRPGRPGPLSTDGTKDNPSTPRVKPQPAVPPRPSSDLILHRCTESTKRKLTSAV
# B2: p40phox (endogenous, Raw264.7) (protein, UniProt P97369 1-339)
# chain: MALAQQLRSESDFEQLPDDVAVSANIADIEEKRGFTSHFVFVIEVKTKGGSKYLIYRRYRQFYALQSKLEERFGPESKNSPFTCSLPTLPAKVYMGAKQEIAETRIPALNAYMKNLLSLPVCVLMDPDVRIFFYQSAYDAEQVPQALRRLRPRTRKIKGVSPQGAIMDRMEAPRAEALFDFTGNSKLELSFKAGDVIFLLSKINKDWLEGTSQGATGIFPGSFVKILKDFPEDEDTTNWLRCYFYEDTGKTIKDIAVEEDLSSTPLFKDLLALMRREFQREDIALSYQDAEGDLVRLLSDEDVGLMVKQARGLPSQKRLFPWKLHVTQKDNYSVYNTVP
# Legend:
# [1] = molecular target: GST-tagged p67phox 4X tetratricopeptide repeat (TPR) domain (UniProt P19878); experiment: pull-down; HEK293T cells co-transfected with GST-tagged domain constructs and the V5-tagged partner; RIPA lysate, pre-cleared with sepharose 6B, glutathione sepharose 4B overnight at 4°C, washed with 1% nonidet P-40; immunoblot with anti-V5
# [2] = molecular target: V5-tagged FAF1 wild-type (stable in Raw264.7) (UniProt Q9UNN5); experiment: co-IP; Raw264.7 cells stably holding empty vector, V5-tagged FAF1 wild-type or FAF1 Δ330–489, without stimulation; IP with anti-V5 antibody; immunoblot for endogenous p67phox and p47phox
# [3] = molecular target: T1, Fas-associated factor 1 (endogenous, mouse macrophages) (mouse (endogenous in Raw264.7 and BMDMs)); experiment: co-IP; endogenous proteins; mock- or L. monocytogenes-infected Raw264.7 cells harvested at various times (also after control or FAF1 siRNA); RIPA lysate, anti-FAF1 antibody, protein A/G agarose; immunoblot
# [4] = molecular target: T1, Fas-associated factor 1 (endogenous, mouse macrophages) (mouse (endogenous in Raw264.7 and BMDMs)); experiment: co-IP; endogenous proteins; BMDMs after control or FAF1 siRNA, infected with L. monocytogenes for the indicated times; anti-FAF1 antibody; immunoblot with anti-p67phox
# [5] = molecular target: V5-tagged FAF1 wild-type (stable in Raw264.7) (UniProt Q9UNN5); experiment: co-IP; Raw264.7 cells stably holding empty vector, V5-tagged FAF1 wild-type or FAF1 Δ330–489, without stimulation; IP with anti-V5 antibody; immunoblot for endogenous p67phox and p47phox; remark: listed apart in the source
# [6] = molecular target: V5-tagged FAF1 Δ330–489 (stable in Raw264.7) (UniProt Q9UNN5); experiment: as above
molecule,measurement,setting,value
V5-tagged FAF1 (HEK293T) (from UniProt Q9UNN5 1-650),binding,[1],binds
"p67phox (endogenous, mouse macrophages) (from UniProt O70145 1-525)",binding,[2],binds
same,binding,[3],binds
same,binding,[4],binds
B1,binding,[3],binds
same,binding,[5],binds
same,binding,[6],binds weakly
B2,binding,[3],binds
